Results deposited as PubChem BioAssay AID1259274 (Sanger Institute, 2017)
In all, the deposit lists 794 reagents; shown is an unselected part. Of all reagents, 11 (1.4%) are marked active. 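Calls rest on knock-down without drug only; synergy scores with anchor drugs were not used for the essential call.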 Entries without a mark were called inactive. Not all columns of the deposit are shown. Reagent sequences are not shown. Not given: the amount of reagent, the time to read-out.

- Aim: 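Kinase knock-downs that cut colorectal cancer cell viability or boost drug killing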 (primary screen)
- System: human RKO colorectal cancer cells
- Reagent: siRNA pool against human genes
- Challenge: anchor drugs BYL719 at 1 µM, cetuximab at 5 µg/ml or trametinib at 10 nM; DMSO vehicle as the no-drug arm
- Measured: 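Viability as fraction of non-targeting pool 2 control, averaged across replicates, robust z-score for single knock-down, and a combination synergy score per anchor drug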
- Direction: viability z-score, siRNA alone: higher = more viable cells; low values mean essential gene
- Hit rule: 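Essential when the robust viability z-score with siRNA only falls below -3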
- Meaning of the calls: active = essential when knocked down alone; inactive = no change alone

target gene | viability z-score, siRNA alone
NRBP1 (nuclear receptor binding protein 1) | -0.738
IRAK4 (interleukin 1 receptor associated kinase 4) | 0.189
CDK17 (cyclin dependent kinase 17) | 0.283
KCNH8 (potassium voltage-gated channel subfamily H member 8) | 1.19
CAMK2A (calcium/calmodulin dependent protein kinase II alpha) | 1.19
STK39 (serine/threonine kinase 39) | -0.581
PKM (pyruvate kinase M1/2) | 0.524
GCK (glucokinase) | 0.46
NME2 (NME/NM23 nucleoside diphosphate kinase 2) | 0.0919
PIP5KL1 (phosphatidylinositol-4-phosphate 5-kinase like 1) | -0.844
MAK (male germ cell associated kinase) | 0.155
MTOR (mechanistic target of rapamycin kinase) | -0.0421
MARK2 (microtubule affinity regulating kinase 2) | -0.931
ETNK2 (ethanolamine kinase 2) | -0.287
GUCY2F (guanylate cyclase 2F, retinal) | -1.33
PDK1 (pyruvate dehydrogenase kinase 1) | -0.561
PKN2 (protein kinase N2) | 0.0915
SOS2 (SOS Ras/Rho guanine nucleotide exchange factor 2) | -0.133
EPHB2 (EPH receptor B2) | 0.196
CAMK4 (calcium/calmodulin dependent protein kinase IV) | 0.172
AMER1 (APC membrane recruitment protein 1) | 0.861
DLG1 (discs large MAGUK scaffold protein 1) | -0.846
EPHB4 (EPH receptor B4) | 0.439
ADCK1 (aarF domain containing kinase 1) | -1.73
YES1 (YES proto-oncogene 1, Src family tyrosine kinase) | -1.35
NME4 (NME/NM23 nucleoside diphosphate kinase 4) | 1.19
CAD | -0.968
BMAL1 (basic helix-loop-helix ARNT like 1) | -2.19
PRKACG (protein kinase cAMP-activated catalytic subunit gamma) | -0.139
TPD52L3 (TPD52 like 3) | 1.05
LATS2 (large tumor suppressor kinase 2) | 1.19
GRK3 (G protein-coupled receptor kinase 3) | 1.19
CERT1 (ceramide transporter 1) | 1.19
IP6K1 (inositol hexakisphosphate kinase 1) | 0.881
AKT1 (AKT serine/threonine kinase 1) | 1.19
PLK2 (polo like kinase 2) | 1.19
DLG3 (discs large MAGUK scaffold protein 3) | -0.78
MAP3K1 (mitogen-activated protein kinase kinase kinase 1) | 0.687
WEE1 (WEE1 G2 checkpoint kinase) | -1.79
MAST2 (microtubule associated serine/threonine kinase 2) | -0.599
MGA (MAX dimerization protein MGA) | -0.974

An excerpt of the results above, for reference:
target gene | viability z-score, siRNA alone
GUCY2F (guanylate cyclase 2F, retinal) | -1.33
PDK1 (pyruvate dehydrogenase kinase 1) | -0.561
PKN2 (protein kinase N2) | 0.0915
SOS2 (SOS Ras/Rho guanine nucleotide exchange factor 2) | -0.133
EPHB2 (EPH receptor B2) | 0.196
CAMK4 (calcium/calmodulin dependent protein kinase IV) | 0.172
AMER1 (APC membrane recruitment protein 1) | 0.861
DLG1 (discs large MAGUK scaffold protein 1) | -0.846

Continued:
target gene | viability z-score, siRNA alone
PIK3R1 (phosphoinositide-3-kinase regulatory subunit 1) | 0.135
CHEK1 (checkpoint kinase 1) | -3.09 (active)
TK2 (thymidine kinase 2) | 0.518
CDK15 (cyclin dependent kinase 15) | 1.19
POMK (protein O-mannose kinase) | 0.55
RTN4 (reticulon 4) | 1.19
PKIA (cAMP-dependent protein kinase inhibitor alpha) | -1.89
NME1 (NME/NM23 nucleoside diphosphate kinase 1) | -0.484
MSR1 (macrophage scavenger receptor 1) | 0.475
ITSN1 (intersectin 1) | 0.296
AURKC (aurora kinase C) | 0.693
PRKAB1 (protein kinase AMP-activated non-catalytic subunit beta 1) | -0.951
NUP62 (nucleoporin 62) | -0.923
EPHA3 (EPH receptor A3) | -0.428
MED24 (mediator complex subunit 24) | 0.371
PRKCG (protein kinase C gamma) | -0.163
RIOK3 (RIO kinase 3) | 0.41
PRKCD (protein kinase C delta) | 0.398
EPHA8 (EPH receptor A8) | -0.718
BRD4 (bromodomain containing 4) | -2.07
PAK3 (p21 (RAC1) activated kinase 3) | 0.585
ROR1 (ROR family WNT receptor 1) | 1.19
